Assay results as given in article PMC3000344.
These are yes or no findings as the source states them, for the method shown. Binding seen in cells or lysates may run through a third protein. Some results given as binding are weak or reduced against the parent protein; the word gives no strength.

The chains behind the UniProt entries cited, without tags or fusion partners. Where a name states a change or a piece, a line headed by the entry shows the natural chain unless it says otherwise. Residues count along the entry.
UniProt P09527: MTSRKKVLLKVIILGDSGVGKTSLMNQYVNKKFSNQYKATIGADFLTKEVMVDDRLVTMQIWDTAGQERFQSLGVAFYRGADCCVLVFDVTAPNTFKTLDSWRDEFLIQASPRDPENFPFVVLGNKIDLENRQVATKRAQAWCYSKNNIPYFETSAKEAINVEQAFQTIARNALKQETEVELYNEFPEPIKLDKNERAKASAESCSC
UniProt P18067: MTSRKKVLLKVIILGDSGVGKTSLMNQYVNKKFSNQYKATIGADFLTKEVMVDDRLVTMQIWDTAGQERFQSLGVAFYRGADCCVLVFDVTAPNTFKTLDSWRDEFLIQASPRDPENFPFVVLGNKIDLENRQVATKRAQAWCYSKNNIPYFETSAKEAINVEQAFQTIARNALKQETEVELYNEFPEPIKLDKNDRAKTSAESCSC
UniProt P35739, residues 33-799: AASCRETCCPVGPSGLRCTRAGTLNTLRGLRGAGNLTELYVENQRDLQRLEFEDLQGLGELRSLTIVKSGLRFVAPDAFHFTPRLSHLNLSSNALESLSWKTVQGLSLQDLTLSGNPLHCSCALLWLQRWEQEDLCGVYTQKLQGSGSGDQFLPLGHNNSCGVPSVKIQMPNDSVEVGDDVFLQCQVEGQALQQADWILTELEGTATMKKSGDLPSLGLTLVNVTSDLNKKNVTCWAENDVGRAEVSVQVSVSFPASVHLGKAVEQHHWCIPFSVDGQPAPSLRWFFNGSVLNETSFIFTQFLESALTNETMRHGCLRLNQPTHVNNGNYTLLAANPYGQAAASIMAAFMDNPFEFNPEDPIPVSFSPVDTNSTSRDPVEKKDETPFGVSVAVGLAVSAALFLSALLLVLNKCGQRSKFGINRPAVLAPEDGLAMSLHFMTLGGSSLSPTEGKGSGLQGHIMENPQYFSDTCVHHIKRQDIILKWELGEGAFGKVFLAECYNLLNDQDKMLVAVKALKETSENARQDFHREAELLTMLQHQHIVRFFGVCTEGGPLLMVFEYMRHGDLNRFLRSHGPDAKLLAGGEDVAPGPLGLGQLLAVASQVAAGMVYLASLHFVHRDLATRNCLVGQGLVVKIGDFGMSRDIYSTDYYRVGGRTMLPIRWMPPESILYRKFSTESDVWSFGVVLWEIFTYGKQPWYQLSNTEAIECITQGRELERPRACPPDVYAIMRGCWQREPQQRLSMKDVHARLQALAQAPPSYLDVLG

Legend:
[1] = target: endogenous Rab7 (rat (endogenous in PC12)) (UniProt P09527); experiment: co-IP; PC12 cells stimulated with NGF (200 ng/ml) for 15-60 min; lysates immunoprecipitated with a pAb against Rab7, immunoblotted for TrkA, reprobed for Rab7; maximum interaction 1 h after stimulation
[2] = target: GFP-Rab7L129F (Canis lupus familiaris) (UniProt P18067); experiment: co-IP; PC12 cells transfected with GFP-Rab7 (wild type or CMT2B mutant), stimulated with NGF for 60 min; lysis in 0.5% NP40, 25 mM Tris-HCl, 100 mM NaCl, pH 7.5; immunoprecipitated with rabbit pAb against GFP and protein A Sepharose at 4°C, immunoblotted for TrkA, reprobed for GFP
[3] = target: GFP-tagged wild-type Rab7 (Canis lupus familiaris) (UniProt P18067); experiment: as above
[4] = target: GFP-Rab7N161T (Canis lupus familiaris) (UniProt P18067); experiment: as above
[5] = target: GFP-Rab7K157N (Canis lupus familiaris) (UniProt P18067); experiment: as above
[6] = target: GFP-Rab7V162M (Canis lupus familiaris) (UniProt P18067); experiment: as above

binding [1]: binds
binding [2]: binds
binding [3]: binds
binding [4]: binds
binding [5]: binds
binding [6]: binds
Substance: nerve growth factor receptor TrkA (from UniProt P35739 33-799)
